This note sets out measurements from the supplement of paper PMC12067093, “Discovery and optimisation of a covalent ligand for TRIM25 and its application to targeted protein ubiquitination” (Chemical Science, 2025).

By UniProt entry, the sequences of proteins in these tests, tags left out. Where a name states a change or a piece, a line headed by the entry shows the natural chain unless it says otherwise.
UniProt Q53GL7: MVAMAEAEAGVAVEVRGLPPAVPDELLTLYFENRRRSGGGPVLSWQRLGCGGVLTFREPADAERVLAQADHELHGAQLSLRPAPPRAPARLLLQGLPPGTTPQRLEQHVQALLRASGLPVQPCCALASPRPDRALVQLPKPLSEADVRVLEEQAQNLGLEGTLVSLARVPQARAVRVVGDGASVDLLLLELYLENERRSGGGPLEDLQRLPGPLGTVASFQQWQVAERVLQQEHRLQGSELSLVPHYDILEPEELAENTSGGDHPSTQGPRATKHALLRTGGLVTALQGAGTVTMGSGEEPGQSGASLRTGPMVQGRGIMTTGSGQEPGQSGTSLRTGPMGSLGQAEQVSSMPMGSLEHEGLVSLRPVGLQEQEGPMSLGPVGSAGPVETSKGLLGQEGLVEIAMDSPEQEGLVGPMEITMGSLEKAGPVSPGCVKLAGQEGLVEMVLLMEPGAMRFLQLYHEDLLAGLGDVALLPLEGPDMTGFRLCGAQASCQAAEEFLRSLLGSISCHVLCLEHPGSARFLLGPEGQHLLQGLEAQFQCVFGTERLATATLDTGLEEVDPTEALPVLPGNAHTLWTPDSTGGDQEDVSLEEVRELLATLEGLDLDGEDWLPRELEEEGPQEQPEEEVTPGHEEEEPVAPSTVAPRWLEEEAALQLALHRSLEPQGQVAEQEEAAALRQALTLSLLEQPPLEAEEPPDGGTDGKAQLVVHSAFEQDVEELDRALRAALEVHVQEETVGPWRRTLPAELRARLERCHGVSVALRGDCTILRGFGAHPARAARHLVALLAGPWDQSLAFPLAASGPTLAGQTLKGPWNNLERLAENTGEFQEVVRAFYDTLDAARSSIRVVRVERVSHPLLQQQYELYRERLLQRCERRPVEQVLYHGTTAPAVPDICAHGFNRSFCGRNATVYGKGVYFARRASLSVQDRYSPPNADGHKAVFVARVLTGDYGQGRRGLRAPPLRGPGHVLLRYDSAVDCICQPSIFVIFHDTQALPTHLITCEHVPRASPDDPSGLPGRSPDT
UniProt O14841: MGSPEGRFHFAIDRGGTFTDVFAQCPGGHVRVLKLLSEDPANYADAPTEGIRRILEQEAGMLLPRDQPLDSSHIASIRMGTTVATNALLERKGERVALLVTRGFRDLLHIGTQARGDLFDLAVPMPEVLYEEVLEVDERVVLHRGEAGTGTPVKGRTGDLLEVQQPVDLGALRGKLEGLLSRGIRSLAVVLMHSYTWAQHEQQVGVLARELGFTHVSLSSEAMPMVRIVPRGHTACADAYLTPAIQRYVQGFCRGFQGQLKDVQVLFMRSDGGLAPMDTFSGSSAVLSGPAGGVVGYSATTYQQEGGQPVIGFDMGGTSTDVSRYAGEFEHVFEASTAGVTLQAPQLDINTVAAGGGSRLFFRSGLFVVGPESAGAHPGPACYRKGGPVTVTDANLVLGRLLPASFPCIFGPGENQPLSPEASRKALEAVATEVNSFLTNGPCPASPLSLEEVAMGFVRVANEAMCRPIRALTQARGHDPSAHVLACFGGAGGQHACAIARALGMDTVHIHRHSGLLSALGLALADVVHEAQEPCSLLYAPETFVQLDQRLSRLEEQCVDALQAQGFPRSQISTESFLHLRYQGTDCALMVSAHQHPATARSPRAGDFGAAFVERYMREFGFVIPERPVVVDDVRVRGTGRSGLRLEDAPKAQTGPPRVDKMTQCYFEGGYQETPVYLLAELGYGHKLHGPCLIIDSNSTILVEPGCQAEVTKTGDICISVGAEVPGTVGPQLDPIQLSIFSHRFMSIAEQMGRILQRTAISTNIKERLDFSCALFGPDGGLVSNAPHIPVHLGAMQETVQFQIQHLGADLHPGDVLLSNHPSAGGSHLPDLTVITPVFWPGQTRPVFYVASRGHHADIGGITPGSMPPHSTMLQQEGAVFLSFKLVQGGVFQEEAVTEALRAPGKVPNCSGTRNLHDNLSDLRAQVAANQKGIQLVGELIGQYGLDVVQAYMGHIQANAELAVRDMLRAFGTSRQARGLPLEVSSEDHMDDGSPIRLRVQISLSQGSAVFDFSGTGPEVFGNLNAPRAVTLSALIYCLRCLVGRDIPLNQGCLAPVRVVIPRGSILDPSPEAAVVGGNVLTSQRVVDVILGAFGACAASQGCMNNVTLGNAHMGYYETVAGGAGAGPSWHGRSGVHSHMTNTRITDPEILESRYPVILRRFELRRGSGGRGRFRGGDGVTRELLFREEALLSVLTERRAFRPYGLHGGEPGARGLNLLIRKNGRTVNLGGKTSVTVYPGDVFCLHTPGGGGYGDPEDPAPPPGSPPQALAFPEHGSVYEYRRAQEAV
UniProt Q9H4B0: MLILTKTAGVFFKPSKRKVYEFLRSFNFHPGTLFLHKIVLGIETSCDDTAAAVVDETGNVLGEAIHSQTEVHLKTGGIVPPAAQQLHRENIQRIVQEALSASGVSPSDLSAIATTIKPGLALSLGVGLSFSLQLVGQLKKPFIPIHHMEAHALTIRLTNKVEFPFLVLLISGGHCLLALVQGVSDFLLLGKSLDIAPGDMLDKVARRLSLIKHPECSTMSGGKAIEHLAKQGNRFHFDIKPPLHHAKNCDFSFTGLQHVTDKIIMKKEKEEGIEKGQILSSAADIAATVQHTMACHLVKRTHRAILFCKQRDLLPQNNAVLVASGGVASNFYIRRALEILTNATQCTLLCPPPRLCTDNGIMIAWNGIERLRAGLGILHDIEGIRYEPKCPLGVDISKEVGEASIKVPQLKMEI
UniProt P22059, whole entry, looked up: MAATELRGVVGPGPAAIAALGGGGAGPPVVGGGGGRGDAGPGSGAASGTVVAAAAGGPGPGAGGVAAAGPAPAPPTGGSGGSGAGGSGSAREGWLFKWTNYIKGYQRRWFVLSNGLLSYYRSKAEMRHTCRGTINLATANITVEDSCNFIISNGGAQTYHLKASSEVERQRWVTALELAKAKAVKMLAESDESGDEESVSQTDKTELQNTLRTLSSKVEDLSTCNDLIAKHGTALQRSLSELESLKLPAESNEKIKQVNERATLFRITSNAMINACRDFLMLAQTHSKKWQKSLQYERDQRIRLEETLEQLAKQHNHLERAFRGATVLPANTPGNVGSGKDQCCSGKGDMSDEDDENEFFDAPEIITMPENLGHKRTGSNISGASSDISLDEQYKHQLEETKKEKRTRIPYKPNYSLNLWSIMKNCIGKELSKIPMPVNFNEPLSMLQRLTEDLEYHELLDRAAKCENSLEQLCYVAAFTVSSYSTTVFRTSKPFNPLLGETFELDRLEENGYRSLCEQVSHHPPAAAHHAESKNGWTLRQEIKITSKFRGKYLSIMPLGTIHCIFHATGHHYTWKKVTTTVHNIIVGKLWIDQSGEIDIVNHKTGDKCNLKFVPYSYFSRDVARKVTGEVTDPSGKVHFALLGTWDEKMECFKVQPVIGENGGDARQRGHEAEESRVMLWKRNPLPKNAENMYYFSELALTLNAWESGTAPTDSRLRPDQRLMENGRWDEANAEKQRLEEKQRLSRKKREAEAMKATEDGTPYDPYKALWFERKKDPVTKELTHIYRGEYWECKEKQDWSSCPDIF
UniProt P32242: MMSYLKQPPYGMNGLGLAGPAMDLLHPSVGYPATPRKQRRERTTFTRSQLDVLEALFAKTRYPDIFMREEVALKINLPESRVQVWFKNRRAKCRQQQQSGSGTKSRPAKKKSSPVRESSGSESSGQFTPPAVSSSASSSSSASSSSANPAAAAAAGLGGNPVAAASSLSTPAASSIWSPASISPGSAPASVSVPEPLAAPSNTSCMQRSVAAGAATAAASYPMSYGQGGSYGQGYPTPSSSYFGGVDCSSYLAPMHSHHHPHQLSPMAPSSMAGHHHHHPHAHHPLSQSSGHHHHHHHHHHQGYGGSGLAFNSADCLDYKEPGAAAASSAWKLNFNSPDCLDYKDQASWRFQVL
UniProt P43034: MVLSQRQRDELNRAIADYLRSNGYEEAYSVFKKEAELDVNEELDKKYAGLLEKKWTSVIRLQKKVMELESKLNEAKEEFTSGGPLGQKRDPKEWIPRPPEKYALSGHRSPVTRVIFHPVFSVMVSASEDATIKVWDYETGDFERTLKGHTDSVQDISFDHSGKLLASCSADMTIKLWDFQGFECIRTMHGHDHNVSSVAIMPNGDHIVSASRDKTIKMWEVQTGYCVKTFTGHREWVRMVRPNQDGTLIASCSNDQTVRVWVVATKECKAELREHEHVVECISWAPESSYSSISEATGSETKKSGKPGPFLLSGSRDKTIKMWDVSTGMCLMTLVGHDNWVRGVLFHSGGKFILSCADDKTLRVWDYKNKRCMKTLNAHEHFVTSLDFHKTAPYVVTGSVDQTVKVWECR
UniProt Q9H0J9: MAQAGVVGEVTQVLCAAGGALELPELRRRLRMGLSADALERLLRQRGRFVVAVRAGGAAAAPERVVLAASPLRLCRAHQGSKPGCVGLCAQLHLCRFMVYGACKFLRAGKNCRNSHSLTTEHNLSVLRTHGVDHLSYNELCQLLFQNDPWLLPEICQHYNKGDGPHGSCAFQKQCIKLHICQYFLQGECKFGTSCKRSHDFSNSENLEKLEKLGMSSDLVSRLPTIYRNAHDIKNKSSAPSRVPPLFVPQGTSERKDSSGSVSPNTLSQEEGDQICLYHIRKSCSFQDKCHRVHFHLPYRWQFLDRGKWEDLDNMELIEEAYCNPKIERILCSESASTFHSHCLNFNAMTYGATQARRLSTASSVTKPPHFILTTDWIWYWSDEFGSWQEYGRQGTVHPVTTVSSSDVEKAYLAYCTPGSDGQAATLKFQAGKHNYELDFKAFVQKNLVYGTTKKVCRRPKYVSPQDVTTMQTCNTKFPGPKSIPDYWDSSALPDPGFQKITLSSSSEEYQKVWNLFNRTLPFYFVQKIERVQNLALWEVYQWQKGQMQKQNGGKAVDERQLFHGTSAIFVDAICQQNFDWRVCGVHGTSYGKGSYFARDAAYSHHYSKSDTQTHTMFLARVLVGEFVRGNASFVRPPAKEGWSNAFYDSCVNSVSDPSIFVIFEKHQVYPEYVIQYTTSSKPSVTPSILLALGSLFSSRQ
UniProt Q9H1P3, whole entry, looked up: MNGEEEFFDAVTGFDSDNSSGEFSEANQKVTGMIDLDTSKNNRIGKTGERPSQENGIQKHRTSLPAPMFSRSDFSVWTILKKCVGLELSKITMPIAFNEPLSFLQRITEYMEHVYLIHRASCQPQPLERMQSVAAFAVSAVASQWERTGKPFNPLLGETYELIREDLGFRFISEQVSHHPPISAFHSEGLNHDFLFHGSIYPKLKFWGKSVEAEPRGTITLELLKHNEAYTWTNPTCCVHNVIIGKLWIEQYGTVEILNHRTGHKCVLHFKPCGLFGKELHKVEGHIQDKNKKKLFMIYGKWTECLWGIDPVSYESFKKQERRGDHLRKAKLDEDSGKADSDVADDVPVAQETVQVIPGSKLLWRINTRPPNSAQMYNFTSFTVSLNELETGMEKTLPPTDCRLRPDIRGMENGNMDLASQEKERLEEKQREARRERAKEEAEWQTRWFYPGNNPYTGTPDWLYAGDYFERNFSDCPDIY
UniProt Q6VY07, whole entry, looked up: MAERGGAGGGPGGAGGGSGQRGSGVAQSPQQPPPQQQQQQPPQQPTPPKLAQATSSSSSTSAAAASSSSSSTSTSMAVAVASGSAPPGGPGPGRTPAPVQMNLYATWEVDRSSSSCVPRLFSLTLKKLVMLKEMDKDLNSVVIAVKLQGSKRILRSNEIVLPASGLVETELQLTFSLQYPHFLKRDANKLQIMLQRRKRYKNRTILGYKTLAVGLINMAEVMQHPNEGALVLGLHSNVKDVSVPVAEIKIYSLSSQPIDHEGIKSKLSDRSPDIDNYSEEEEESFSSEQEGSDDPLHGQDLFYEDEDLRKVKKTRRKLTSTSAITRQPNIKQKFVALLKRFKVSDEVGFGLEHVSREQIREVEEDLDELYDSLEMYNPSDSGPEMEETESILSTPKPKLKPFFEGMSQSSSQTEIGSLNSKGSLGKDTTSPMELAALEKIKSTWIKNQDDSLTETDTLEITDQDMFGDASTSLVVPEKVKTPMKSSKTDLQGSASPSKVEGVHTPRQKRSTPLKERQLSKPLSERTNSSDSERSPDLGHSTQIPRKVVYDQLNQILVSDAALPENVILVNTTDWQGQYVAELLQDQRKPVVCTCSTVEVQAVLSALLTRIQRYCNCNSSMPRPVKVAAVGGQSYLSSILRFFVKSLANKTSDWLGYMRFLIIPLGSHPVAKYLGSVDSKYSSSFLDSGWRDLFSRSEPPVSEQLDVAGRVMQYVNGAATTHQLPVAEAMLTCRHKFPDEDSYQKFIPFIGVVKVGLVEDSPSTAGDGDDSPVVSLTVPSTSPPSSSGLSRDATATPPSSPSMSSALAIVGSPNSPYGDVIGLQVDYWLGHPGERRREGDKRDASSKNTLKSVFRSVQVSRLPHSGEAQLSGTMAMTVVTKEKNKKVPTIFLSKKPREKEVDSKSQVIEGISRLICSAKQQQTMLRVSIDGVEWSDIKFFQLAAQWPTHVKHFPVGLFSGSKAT

Compound in the test: CC1Cc2ccccc2N1C(=O)C1CCCN(C1)C(=O)CCl (mixture of isomers) [TRIM25 ligand 11 (diastereomer mixture)]
Put plainly: probe-labelled cysteine peptide fold change vs DMSO (competition) (log2 fold change); higher = less target engagement (more negative = stronger competition). Conditions: THP-1, incubation time: 4 h.

The list shows a part of the results.
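Also: competitive chemoproteomic profiling in live THP-1 cells with an iodoacetamide desthiobiotin (IA-DTB) probe, comparing probe-labelled peptide intensities in compound-treated cells against DMSO-treated controls.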

On to “PARP10_Q53GL7_50_LGCGGVLTFR (UniProt Q53GL7)”, for which the “probe-labelled cysteine peptide fold change” value is 0.0678 (10 µM) and -0.0422 (50 µM).
For “OPLAH_O14841_408_LLPASFPCIFGPGENQPLSPEASR (UniProt O14841)”, the “probe-labelled cysteine peptide fold change” value runs as follows: (10 µM) -0.283; (50 µM) -0.252.
Take “PARP10_Q53GL7_50_LGCGGVLTFREPADAER (UniProt Q53GL7)”: the “probe-labelled cysteine peptide fold change” value (10 µM) was -0.0676 and the “probe-labelled cysteine peptide fold change” value (50 µM) is 0.0285.
For “OSGEPL1_Q9H4B0_390_CPLGVDISK (UniProt Q9H4B0)”, in that order: -0.0159 and -0.106.
For “OSBP_P22059_517_SLCEQVSHHPPAAAHHAESK (UniProt P22059)”, in that order: 0.0939 and -0.0693.
For “OTX1_P32242_340_LNFNSPDCLDYK (UniProt P32242)”, in that order: 0.161 and -0.0204.
Regarding “OSGEP_Q9NPF4_277_LQEMMATMCQER (UniProt Q9NPF4)”, the “probe-labelled cysteine peptide fold change” value is 0.0307 (10 µM) and -0.0484 (50 µM).
For “PAFAH2_Q99487_298_ICAQHEQSR (UniProt Q99487)”, in that order: 0.179 and 0.197.
For “PAFAH1B1_P43034_281_EHEHVVECISWAPESSYSSISEATGSETK (UniProt P43034)”, in that order: -0.156 and 0.158.
For “PARP12_Q9H0J9_195_FGTSCK (UniProt Q9H0J9)” the same measures were 0.0637 and 0.0773.
In the case of “P4HB_P07237_53+56_YLLVEFYAPWCGHCK (UniProt P07237)”, the “probe-labelled cysteine peptide fold change” value runs as follows: (10 µM) -0.316; (50 µM) -0.77.
For “OSBPL2_Q9H1P3_266_CVLHFKPCGLFGK (UniProt Q9H1P3)”, in that order: -0.162 and 0.13.
For “PACS1_Q6VY07_732_VMQYVNGAATTHQLPVAEAMLTCR (UniProt Q6VY07)” the same measures were 0.0312 and -0.363.
